# In PubChem BioAssay AID2685 (National Center for Advancing Translational Sciences (NCATS), 2010):
# This is one part of the list. These are further read-outs of the screen, such as a control signal, another cell line or another target. No call is given for them. The list favours compounds with an active or inconclusive main result. The note in brackets gives the kind of curve behind each potency; many fits are weak.
# Assay: qHTS Assay for Lipid Storage Modulators in Drosophila S3 Cells;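 on cell number change: cells counted by Cell Tracker Red CMTPX staining in the red channel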
# Conditions: BODIPY lipid droplet fluorescence, 18-24 h; for cell number change: measured here: cell count max response, cells fed with added oleic acid
# How it was run: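 Drosophila S3 cells loaded with oleic acid (400 uM, as added) and compounds at several concentrations; lipid droplets imaged by 488-nm laser-scanning cytometry, 500–530 nm intensity and object ratio to cell channel. Percent activity normalized to 20 uM Triacsin C.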
# [1] = measured here: cell number channel AC50, cells fed with added oleic acid
# [2] = measured here: lipid fluorescence (Fed channel) AC50, cells fed with added oleic acid
smiles,measurement,setting,value
Fc1cccc(CN2CCCCCCC2)c1,cell number change,,22.9%
same,AC50,[1],"0.0058 µM [rising, full curve, poor fit]"
CN(CC1CCOCC1)C(=O)CC1C(=O)NCCN1Cc1ccccc1F (configuration not stated),cell number change,,-10.3%
O=C1/C(=C\c2ccco2)SC(=S)N1Cc1ccccc1,cell number change,,-16%
Cc1ccc(N2CCN(S(=O)(=O)c3nnc(NC(=O)c4ccccc4)s3)CC2)cc1,cell number change,,13.5%
same,AC50,[2],"5.8 µM [rising, full curve, poor fit]"
CCCc1cc(=O)[nH]c(SCC(=O)N(C)CC(=O)Nc2ccccc2CC)n1,cell number change,,-18.8%
same,AC50,[2],"8.2 µM [falling, partial curve]"
CCCC(=O)Nc1cc(C)cn(Cc2c(F)cccc2Cl)c1=O,AC50,[2],"0.116 µM [falling, full curve, poor fit]"
NC(=O)CC(NC(=O)Cc1ccc(Br)cc1)c1ccc(NC2CCCCCC2)c([N+](=O)[O-])c1 (configuration not stated),cell number change,,16.2%
same,AC50,[2],"7.31 µM [rising, partial curve]"
CC(Sc1nc(-c2ccccc2)cc(C(F)(F)F)n1)C(=O)Nc1ccc2c(c1)OCO2 (configuration not stated),cell number change,,-47.1%
same,AC50,[1],"29.1 µM [falling, single point]"
COc1cccc(C2CC(c3ccc(F)cc3)Nc3nc(N)nn32)c1 (configuration not stated),AC50,[2],"6.51 µM [rising, single point]"
CCCc1ccc(OCc2ccc(C(=O)N3CCSCC3)o2)cc1,cell number change,,2.78%
same,AC50,[2],"29.1 µM [falling, partial curve]"
CC(NC(=O)C1CCC(CNc2c(N3CCCCC3)c(=O)c2=O)CC1)c1ccccc1 (configuration not stated),cell number change,,33.7%
same,AC50,[1],"4.11 µM [rising, full curve, poor fit]"
same,AC50,[2],"5.17 µM [rising, full curve]"
CC(=O)c1sc(N/N=C/c2cccc([N+](=O)[O-])c2)nc1C,cell number change,,0.84%
Cc1ccccc1Cn1nc(C)c(NC(=O)c2noc3c2CCc2ccccc2-3)c1C,AC50,[1],"0.146 µM [rising, full curve, poor fit]"
Nc1ccccc1-c1nnc(SCc2ccccc2F)[nH]c1=O,cell number change,,-7.11%
same,AC50,[2],"1.46 µM [rising, partial curve]"
O=P(O)(O)c1ccccc1OCc1ccccc1,cell number change,,-21.2%
same,AC50,[2],"0.0517 µM [falling, full curve]"
CCOC(=O)c1cc(CC)sc1NC(=O)CC1Sc2ccc(C(F)(F)F)cc2NC1=O (configuration not stated),cell number change,,8.8%
O=C(CC1Sc2ncnn2C1=O)Nc1ccccc1 (configuration not stated),cell number change,,22.9%
same,AC50,[2],"16.4 µM [falling, single point]"
CCOc1ccccc1N1CC(C(=O)Nc2nccs2)CC1=O (configuration not stated),cell number change,,-1.36%
CCN(CC)C(=O)CSc1nc2c(sc(=S)n2-c2ccccc2)c(=O)[nH]1,cell number change,,35.6%
COc1ccc(OC)c(NC(=O)c2cn(C)c(=O)c3cc(OC)c(OC)cc23)c1,AC50,[2],"6.51 µM [rising, partial curve, poor fit]"
Cc1ccc(NN2C(=O)C=C(c3ccccc3)C2=O)cc1,cell number change,,-32.2%
same,AC50,[1],"2.06 µM [falling, partial curve]"
same,AC50,[2],"0.82 µM [falling, partial curve]"
CCc1ccccc1NC(=S)N1CCN(c2ccccn2)CC1,cell number change,,4.16%
COc1ccc(S(=O)(=O)N2CCOCC2)cc1NC(=O)c1ccccc1C,cell number change,,14.6%
same,AC50,[2],"8.2 µM [falling, partial curve]"
CC1(C)SC(=S)N(/N=C/c2ccccc2)C1N(O)C(=O)Nc1ccc([N+](=O)[O-])cc1 (configuration not stated),AC50,[1],"3.26 µM [rising, single point]"
same,AC50,[2],"3.26 µM [rising, single point]"
O=C(N/N=C/c1ccc([N+](=O)[O-])o1)C1CC1,AC50,[2],"4.11 µM [falling, single point]"
CN1CCc2[nH]c3ccc(C(=O)NN)cc3c2C1,cell number change,,3.78%
same,AC50,[2],"6.51 µM [falling, single point]"
COc1cccc(OC)c1C(=O)N=c1sc2cc(S(C)(=O)=O)ccc2n1C,cell number change,,11.4%
O=C(CNC(=O)c1ccc(Cl)c([N+](=O)[O-])c1)NCC1CCCO1 (configuration not stated),cell number change,,-19.7%
same,AC50,[2],"35.5 µM [rising, single point]"
Cc1ccc(C(=O)NNC(=O)CCOc2cccc(C)c2)cc1,cell number change,,16.2%
same,AC50,[1],"0.651 µM [falling, full curve]"
same,AC50,[2],"0.00461 µM [falling, full curve, poor fit]"
CC(=O)N1[C@H](Cc2ccccc2)C=C[C@]1(C)C(=O)NCc1ccccn1,cell number change,,-1.04%
same,AC50,[2],"9.2 µM [rising, partial curve]"
CCCc1nnc(-c2cc(OC)c(OC)c(OC)c2)o1,cell number change,,6.51%
same,AC50,[2],"5.8 µM [rising, partial curve, poor fit]"
CCOC(=O)C1CCN(C(=O)CN(c2ccc3c(c2)OCCO3)S(C)(=O)=O)CC1,cell number change,,15.3%
same,AC50,[1],"0.082 µM [falling, full curve, poor fit]"
same,AC50,[2],"0.259 µM [falling, partial curve, poor fit]"
O=C(O)CCC1(CCC(=O)O)c2ccccc2-c2ccccc21,cell number change,,9.84%
O=P(CCNCc1ccco1)(c1ccccc1)c1ccccc1,cell number change,,13.3%
OC(CNCc1ccc(Cl)cc1)C(F)(F)F (configuration not stated),cell number change,,-21.7%
COC(=O)c1ccc(OCc2nn[nH]n2)cc1,cell number change,,4.73%
O=C(Nc1ccc(S(=O)(=O)N2CCCCC2)cc1)c1ccc(CN2CCc3ccccc3C2)cc1,AC50,[2],"23.1 µM [falling, partial curve]"
CCOC(=O)c1ccc(NC(=O)C2=C(C)Nc3nc(CCCO)nn3C2c2cccc(C)c2)cc1 (configuration not stated),cell number change,,1.58%
CC(SCc1ccccc1)C(=O)Nc1ccccc1Br (configuration not stated),cell number change,,-12.3%
same,AC50,[2],"14.6 µM [rising, partial curve]"
Cc1ccc(-n2nc3c(c2NC(=O)c2ccco2)CS(=O)(=O)C3)cc1C,cell number change,,1.76%
CC(NC(=O)c1ccc2c(c1)OCO2)c1cccc(C(F)(F)F)c1 (configuration not stated),cell number change,,-12%
same,AC50,[2],"2.06 µM [rising, single point]"
CC(C)(C)c1nn(-c2ccccc2)c2[nH]c(=O)c(C=O)cc12,cell number change,,-36.5%
same,AC50,[1],"23.1 µM [falling, partial curve, poor fit]"
Cc1ccc(NC(=O)CN2CCC(Cc3ccccc3)CC2)cc1S(=O)(=O)N(C)C,cell number change,,22.2%
CCc1nc2ccccc2n1CC(=O)N1CCN(Cc2ccccc2)CC1,cell number change,,25.8%
same,AC50,[1],"0.00517 µM [rising, full curve, poor fit]"
same,AC50,[2],"0.0326 µM [rising, full curve, poor fit]"

# Reprinted at random: 3 records from the list
smiles,measurement,setting,value
COC(=O)c1ccc(OCc2nn[nH]n2)cc1,cell number change,,4.73%
CC(NC(=O)C1CCC(CNc2c(N3CCCCC3)c(=O)c2=O)CC1)c1ccccc1 (configuration not stated),AC50,[2],"5.17 µM [rising, full curve]"
CCCc1nnc(-c2cc(OC)c(OC)c(OC)c2)o1,cell number change,,6.51%
